Experimental data as given in US20130017550A1.
These are yes or no findings as the source states them, for the method shown. Binding seen in cells or lysates may run through a third protein. Some entries that bind do so weakly or less than the wild type.

Sequences of proteins named here, by UniProt entry; tags and fusion partners are left off. A change or cut given only in a name is not applied to a line headed by its entry.
UniProt Q02111: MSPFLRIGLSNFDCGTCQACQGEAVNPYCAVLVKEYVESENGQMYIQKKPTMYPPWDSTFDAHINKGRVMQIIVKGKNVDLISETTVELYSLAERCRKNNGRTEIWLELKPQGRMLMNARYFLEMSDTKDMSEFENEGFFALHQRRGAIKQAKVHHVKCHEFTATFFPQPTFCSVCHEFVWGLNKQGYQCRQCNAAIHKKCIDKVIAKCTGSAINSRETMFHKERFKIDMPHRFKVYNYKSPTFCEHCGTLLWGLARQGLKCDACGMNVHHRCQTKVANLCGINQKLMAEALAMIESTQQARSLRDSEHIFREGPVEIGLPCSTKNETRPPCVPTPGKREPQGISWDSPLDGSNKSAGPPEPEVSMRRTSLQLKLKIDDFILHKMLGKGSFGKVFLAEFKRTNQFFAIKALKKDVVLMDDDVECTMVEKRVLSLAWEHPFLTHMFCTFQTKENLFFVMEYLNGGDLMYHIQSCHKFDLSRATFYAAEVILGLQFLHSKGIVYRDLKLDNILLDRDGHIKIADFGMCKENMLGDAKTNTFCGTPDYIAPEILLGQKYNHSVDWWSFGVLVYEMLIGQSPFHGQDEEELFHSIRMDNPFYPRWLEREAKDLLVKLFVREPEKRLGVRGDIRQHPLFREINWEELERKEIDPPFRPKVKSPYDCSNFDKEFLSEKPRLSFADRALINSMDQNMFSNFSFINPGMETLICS
UniProt Q99JP0: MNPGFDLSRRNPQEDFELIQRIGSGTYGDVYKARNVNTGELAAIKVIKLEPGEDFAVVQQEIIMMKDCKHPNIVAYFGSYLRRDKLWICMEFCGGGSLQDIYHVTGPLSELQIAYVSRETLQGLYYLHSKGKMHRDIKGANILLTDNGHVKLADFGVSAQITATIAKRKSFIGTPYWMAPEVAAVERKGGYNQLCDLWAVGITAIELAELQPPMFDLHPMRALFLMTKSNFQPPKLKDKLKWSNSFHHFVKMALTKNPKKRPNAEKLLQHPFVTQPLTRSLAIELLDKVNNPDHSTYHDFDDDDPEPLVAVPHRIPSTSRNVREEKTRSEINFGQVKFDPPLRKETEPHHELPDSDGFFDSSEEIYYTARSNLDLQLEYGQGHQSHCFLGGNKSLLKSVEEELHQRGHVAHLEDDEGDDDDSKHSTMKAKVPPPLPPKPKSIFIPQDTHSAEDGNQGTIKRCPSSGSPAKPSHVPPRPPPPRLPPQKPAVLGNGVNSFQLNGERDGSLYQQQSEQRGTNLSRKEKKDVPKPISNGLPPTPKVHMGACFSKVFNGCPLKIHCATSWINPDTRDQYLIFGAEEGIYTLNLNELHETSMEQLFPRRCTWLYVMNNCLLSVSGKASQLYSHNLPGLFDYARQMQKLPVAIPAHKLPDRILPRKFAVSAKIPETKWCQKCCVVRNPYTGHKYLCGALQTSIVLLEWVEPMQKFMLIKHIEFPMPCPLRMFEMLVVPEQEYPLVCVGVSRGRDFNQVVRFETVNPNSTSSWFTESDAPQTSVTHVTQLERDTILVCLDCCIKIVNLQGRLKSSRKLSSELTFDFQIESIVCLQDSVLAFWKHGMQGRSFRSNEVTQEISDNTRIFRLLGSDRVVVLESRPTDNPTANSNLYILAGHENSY

Legend:
[1] = target: endogenous PKC-θ in mouse primary T cells (mouse) (UniProt Q02111); assay: co-immunoprecipitation time course, mouse primary T cells after CD3 stimulation (FIG. 2a)
[2] = target: endogenous PKC-θ in mouse primary T cells (mouse) (UniProt Q02111); assay: co-immunoprecipitation from lysates of mouse primary T cells after CD3 stimulation (FIG. 1b)
[3] = target: T1, endogenous SLP-76 in mouse primary T cells (mouse) (UniProt Q60787); assay: co-immunoprecipitation from lysates of mouse primary T cells after CD3 stimulation (FIG. 2a)
T1 sequence (looked up): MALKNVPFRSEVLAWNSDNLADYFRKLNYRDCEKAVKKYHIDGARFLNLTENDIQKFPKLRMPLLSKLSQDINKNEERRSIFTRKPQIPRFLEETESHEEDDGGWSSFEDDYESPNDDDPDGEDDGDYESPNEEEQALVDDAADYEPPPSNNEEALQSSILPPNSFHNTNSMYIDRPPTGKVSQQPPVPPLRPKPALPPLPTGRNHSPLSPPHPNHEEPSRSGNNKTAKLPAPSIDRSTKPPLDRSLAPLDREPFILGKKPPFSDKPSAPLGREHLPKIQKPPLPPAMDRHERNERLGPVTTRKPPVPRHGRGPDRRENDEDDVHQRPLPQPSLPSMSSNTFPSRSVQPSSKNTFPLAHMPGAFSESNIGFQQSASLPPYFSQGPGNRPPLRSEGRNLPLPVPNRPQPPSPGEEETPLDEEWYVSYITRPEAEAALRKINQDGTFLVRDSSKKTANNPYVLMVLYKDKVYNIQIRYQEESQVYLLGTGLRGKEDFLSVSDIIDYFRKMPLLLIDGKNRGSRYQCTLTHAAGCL

- binding [1]: binds
- binding [2]: binds
- binding [3]: binds
Substance: endogenous GLK in mouse primary T cells (from UniProt Q99JP0 1-894) (enzyme)
